# Data as given in PubChem BioAssay AID1259405 (NCATS, 2018)
# Assay: 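Silenced genes that increase secreted GFP made by CHO cells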 (primary screen)
# System: Chinese hamster CHO-K1 ovary cells with stable secreted eGFP expression
# Reagent: single siRNA against mouse genes, 0.8 pmol siRNA per well (2 µl of 400 nM stock)
# Timing: 3 days
# Detection: 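Percent of the per-plate non-targeting control median for intracellular GFP per well by laser scanning cytometry and for cell viability by ATP luminescence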
# Reading the numbers: GFP, % of control: higher = more GFP per well, higher productivity; viability (ATP), % of control: higher = more viable cells (more ATP)
# Call rule: 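a knock-down is called active if GFP reaches 120% or more of non-targeting control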
# Here is an unselected part of about 50,000 reagents tested. About 4,000 of all reagents (8%) count as active. 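Mouse siRNA library applied to hamster cells; one well for each siRNA.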 A number with no mark means an inactive call.
gene knocked down,PubChem SID,"GFP, % of control","viability (ATP), % of control"
Fam219b,SID363543390,46.5,31.4
Fam219b,SID363552883,70.7,77.2
Fam219b,SID363558731,54.1,66
Gtf2ird1,SID363573339,57.5,77.6
Gtf2ird1,SID363588578,89,83.8
Birc2,SID363571059,74.2,77.3
Spint4,SID363556703,104,60.3
Spint4,SID363563607,75.5,84.1
Spint4,SID363587153,102,97.6
Asic2,SID363547249,74,61.1
Asic2,SID363558018,80.1,43.3
Asic2,SID363559776,76.1,78.7
Cfap52,SID363540671,109,107
Cfap52,SID363543122,32.8,51.1
Cfap52,SID363552615,104,89.4
Krt27,SID363540972,55.1,45.5
Krt27,SID363555599,52.5,58.9
Krt27,SID363565888,91.5,75.3
Ces2b,SID363545755,125 (active),104
Ces2b,SID363549268,80.6,97.2
Ces2b,SID363563074,66,74.5
Cyp11a1,SID363572973,76.4,55.6
Cyp11a1,SID363577549,79.5,59.4
Cyp11a1,SID363581069,220 (active),72.7
1700013G24Rik,SID363540612,84.1,64.1
1700013G24Rik,SID363543063,62.8,56.6
1700013G24Rik,SID363552556,57.3,43.9
Cebpz,SID363573276,59.9,62.8
Cebpz,SID363588515,51.6,67
Ltbr,SID363568818,80.3,80.7
Ltbr,SID363576210,61.6,58.8
Ltbr,SID363579026,44.5,60.2
C4bp,SID363553572,36.2,41.1
C4bp,SID363561529,73.5,76.1
C4bp,SID363565267,95.4,59.6
Aqr,SID363545758,251 (active),63.5
Aqr,SID363549271,79.9,61.1
Aqr,SID363563077,74,61.4
Pus10,SID363552227,114,76.7
Pus10,SID363585363,117,89.7
Pus10,SID363585714,142 (active),134
Tmem203,SID363550033,63.8,82.8
Tmem203,SID363564542,41.6,20.1
Tmem203,SID363588087,91.6,94.7
Tmem168,SID363552404,81.4,72.9
Tmem168,SID363585540,70,92.6
Tmem168,SID363585891,83.3,74.3
Exosc6,SID363569703,62.3,79
Exosc6,SID363576743,39.8,50.9
Exosc6,SID363578151,89.4,112
Mafb,SID363541115,56.6,62.3
Mafb,SID363555742,71.9,83.9
Mafb,SID363566031,76.8,59.4
Mrpl47,SID363562206,76.6,83.1
Mrpl47,SID363567344,86.1,96.2
Mrpl47,SID363584701,91.5,57.8
Tfg,SID363556482,75.4,74.9
Tfg,SID363586932,129 (active),105
Tfg,SID363589040,118,144
Lce1i,SID363543465,87.1,65.2
Lce1i,SID363552958,80.9,41.4
Lce1i,SID363558806,72.6,71.6
Rdh8,SID363574967,50.5,56.5
Rdh8,SID363580599,53.4,25.6
Rdh8,SID363582711,70.9,51.9
Dnajb13,SID363572702,34,49.4
Dnajb13,SID363577982,74.9,86.1
Dnajb13,SID363582206,80.4,138
Garin3,SID363540346,49.9,57.1
Garin3,SID363542098,34.5,40.1
Garin3,SID363567014,77.9,62.9
Rfc2,SID363545707,52.3,41.5
Rfc2,SID363549220,67.1,89.3
Rfc2,SID363563026,58.5,68
Mnmip1,SID363543604,71.1,77.4
Mnmip1,SID363553097,109,101
Mnmip1,SID363558945,51.4,69.9
Sh3gl1,SID363554969,127 (active),63.1
Sh3gl1,SID363568416,56.8,45.5
Sh3gl1,SID363586475,76.9,83.4
Elmo2,SID363541501,70.6,72.8
Elmo2,SID363556128,110,111
Elmo2,SID363566417,63.3,66
Rbm4,SID363569143,148 (active),133
Rbm4,SID363583575,107,102

Just “viability (ATP), % of control” (11 entries from above):
Cyp11a1 [SID363577549] = 59.4
Cyp11a1 [SID363581069] = 72.7 (active)
1700013G24Rik [SID363540612] = 64.1
1700013G24Rik [SID363543063] = 56.6
1700013G24Rik [SID363552556] = 43.9
Cebpz [SID363573276] = 62.8
Cebpz [SID363588515] = 67
Ltbr [SID363568818] = 80.7
Ltbr [SID363576210] = 58.8
Ltbr [SID363579026] = 60.2
C4bp [SID363553572] = 41.1
